Only a part is listed here, and it is no random draw. Single values of this set are uncertain.
These targets were tested with COC(=O)/C=C/c1ccccc1 [methyl cinnamate] (assay: log2 ratio of iodoacetamide-alkyne labeling of the cysteine site, DMSO over compound (competition); higher = stronger covalent engagement of the cysteine by the compound, active = 1 or more). Settings: 500 µM; treatment time 1 h; system: HEK293T cell lysate.
Method in brief: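 For each cysteine, the log2 competition ratio is mean control-channel reporter intensity over mean compound-channel reporter intensity. HEK293T lysate (2 mg/mL) was exposed to vehicle or electrophile (500 µM, 1 h, ambient temperature), labelled with iodoacetamide alkyne (1 h), clicked to sCIP-TMT reagents, digested overnight with trypsin at 37 °C, streptavidin-enriched and analysed by Orbitrap Eclipse LC-MS/MS with FAIMS and FragPipe. Cysteines quantified in only one of three replicates, each with duplicate channels, were excluded.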

Protein sequences, listed by entry. Tags and fused reporters are not part of them. Lines headed by an entry give the natural chain unless they say otherwise; changes in a name come on top.
UniProt P11413, whole entry, looked up: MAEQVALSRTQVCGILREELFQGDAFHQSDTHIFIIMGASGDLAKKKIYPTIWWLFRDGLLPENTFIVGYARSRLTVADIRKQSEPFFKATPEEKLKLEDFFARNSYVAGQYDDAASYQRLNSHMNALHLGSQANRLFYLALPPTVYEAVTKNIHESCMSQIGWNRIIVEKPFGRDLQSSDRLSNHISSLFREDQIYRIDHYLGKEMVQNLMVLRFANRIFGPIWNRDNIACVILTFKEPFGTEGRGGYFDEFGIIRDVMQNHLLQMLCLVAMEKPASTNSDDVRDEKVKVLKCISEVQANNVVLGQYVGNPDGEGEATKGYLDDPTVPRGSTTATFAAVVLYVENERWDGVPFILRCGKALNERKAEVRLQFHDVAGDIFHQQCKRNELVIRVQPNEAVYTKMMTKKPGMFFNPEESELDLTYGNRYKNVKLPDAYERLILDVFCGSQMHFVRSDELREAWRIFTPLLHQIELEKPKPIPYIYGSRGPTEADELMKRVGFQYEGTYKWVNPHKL
UniProt P07948: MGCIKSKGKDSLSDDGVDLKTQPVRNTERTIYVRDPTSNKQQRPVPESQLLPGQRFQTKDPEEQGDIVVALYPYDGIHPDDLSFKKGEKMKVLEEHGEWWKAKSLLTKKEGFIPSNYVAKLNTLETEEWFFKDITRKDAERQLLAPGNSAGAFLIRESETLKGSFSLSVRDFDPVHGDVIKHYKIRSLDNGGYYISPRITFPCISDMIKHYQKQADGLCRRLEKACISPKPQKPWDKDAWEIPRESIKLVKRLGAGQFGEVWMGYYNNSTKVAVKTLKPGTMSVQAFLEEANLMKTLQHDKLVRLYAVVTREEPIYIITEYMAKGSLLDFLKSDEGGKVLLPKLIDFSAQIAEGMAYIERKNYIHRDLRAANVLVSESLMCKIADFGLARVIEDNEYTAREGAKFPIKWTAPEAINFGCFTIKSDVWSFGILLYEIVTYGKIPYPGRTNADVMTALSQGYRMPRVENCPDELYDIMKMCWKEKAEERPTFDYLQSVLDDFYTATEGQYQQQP
UniProt P13984, whole entry: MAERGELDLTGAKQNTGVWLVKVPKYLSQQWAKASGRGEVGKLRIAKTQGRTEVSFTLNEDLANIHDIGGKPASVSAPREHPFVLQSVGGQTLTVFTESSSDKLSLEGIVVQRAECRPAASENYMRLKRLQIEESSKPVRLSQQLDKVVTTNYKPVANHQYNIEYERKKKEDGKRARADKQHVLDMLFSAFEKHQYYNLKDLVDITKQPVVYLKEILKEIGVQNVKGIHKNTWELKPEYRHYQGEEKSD
UniProt P11586, whole entry, looked up: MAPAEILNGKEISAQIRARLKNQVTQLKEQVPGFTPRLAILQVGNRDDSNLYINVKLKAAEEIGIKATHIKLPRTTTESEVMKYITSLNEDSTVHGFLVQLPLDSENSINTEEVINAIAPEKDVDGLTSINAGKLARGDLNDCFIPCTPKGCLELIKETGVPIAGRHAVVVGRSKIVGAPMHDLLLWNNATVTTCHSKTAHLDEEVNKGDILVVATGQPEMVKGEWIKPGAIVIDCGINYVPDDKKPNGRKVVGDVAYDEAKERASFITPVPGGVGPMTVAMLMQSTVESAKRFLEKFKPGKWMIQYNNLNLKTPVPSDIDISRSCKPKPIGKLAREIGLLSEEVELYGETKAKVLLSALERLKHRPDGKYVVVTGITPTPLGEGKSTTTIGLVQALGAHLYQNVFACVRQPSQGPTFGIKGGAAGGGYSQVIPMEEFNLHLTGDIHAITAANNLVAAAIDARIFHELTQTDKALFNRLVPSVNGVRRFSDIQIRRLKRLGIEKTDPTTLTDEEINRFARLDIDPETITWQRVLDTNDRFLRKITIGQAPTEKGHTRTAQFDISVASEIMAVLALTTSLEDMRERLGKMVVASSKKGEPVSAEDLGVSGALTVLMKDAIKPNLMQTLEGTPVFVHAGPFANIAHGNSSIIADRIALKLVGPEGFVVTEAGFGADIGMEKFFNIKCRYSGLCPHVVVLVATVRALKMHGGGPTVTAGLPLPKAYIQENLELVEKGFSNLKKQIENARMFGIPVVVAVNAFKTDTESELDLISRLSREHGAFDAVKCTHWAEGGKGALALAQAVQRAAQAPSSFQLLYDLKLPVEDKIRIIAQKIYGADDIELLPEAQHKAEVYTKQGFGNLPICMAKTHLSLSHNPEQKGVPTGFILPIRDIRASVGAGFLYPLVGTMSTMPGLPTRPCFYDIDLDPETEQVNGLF
UniProt P17706: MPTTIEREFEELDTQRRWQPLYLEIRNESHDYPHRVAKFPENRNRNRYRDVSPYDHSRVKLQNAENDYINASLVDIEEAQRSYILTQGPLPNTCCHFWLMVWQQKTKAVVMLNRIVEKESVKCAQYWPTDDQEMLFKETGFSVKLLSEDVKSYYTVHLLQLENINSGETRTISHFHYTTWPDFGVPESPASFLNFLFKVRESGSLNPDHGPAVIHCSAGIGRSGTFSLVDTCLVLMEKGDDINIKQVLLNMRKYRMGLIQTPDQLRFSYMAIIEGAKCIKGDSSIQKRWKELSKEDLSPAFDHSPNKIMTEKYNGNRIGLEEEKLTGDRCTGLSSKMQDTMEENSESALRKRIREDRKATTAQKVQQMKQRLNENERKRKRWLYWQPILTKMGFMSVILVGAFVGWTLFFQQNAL
UniProt P14618, whole entry, looked up: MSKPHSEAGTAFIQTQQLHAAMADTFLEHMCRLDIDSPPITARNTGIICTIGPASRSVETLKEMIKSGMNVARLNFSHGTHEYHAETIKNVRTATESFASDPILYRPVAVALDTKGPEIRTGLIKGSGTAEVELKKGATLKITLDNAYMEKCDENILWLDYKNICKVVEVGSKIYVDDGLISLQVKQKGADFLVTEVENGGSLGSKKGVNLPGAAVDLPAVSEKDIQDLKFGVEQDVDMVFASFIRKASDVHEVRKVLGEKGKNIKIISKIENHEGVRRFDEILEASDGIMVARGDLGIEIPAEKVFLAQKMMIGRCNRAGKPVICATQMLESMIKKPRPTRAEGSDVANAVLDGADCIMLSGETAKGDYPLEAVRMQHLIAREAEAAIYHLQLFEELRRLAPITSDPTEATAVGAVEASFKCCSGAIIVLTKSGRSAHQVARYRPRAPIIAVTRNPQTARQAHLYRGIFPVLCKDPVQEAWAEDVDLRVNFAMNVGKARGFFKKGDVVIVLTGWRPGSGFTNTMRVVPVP
UniProt P08134, whole entry: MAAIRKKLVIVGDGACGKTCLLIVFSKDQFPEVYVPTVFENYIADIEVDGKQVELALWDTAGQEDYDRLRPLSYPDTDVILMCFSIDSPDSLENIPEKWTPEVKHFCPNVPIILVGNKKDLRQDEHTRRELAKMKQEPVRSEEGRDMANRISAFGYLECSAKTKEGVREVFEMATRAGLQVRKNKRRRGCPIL
UniProt P09651: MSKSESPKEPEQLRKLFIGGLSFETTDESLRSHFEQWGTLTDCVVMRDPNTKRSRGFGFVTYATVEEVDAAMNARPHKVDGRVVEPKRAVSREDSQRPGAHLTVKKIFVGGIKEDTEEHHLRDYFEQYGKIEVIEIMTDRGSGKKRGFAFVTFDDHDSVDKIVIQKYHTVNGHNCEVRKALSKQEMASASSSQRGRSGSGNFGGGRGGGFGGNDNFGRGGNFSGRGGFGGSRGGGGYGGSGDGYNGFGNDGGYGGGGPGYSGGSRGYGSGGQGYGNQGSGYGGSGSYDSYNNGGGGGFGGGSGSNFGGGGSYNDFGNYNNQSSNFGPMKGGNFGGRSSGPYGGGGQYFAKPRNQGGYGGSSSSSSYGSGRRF
UniProt P15924: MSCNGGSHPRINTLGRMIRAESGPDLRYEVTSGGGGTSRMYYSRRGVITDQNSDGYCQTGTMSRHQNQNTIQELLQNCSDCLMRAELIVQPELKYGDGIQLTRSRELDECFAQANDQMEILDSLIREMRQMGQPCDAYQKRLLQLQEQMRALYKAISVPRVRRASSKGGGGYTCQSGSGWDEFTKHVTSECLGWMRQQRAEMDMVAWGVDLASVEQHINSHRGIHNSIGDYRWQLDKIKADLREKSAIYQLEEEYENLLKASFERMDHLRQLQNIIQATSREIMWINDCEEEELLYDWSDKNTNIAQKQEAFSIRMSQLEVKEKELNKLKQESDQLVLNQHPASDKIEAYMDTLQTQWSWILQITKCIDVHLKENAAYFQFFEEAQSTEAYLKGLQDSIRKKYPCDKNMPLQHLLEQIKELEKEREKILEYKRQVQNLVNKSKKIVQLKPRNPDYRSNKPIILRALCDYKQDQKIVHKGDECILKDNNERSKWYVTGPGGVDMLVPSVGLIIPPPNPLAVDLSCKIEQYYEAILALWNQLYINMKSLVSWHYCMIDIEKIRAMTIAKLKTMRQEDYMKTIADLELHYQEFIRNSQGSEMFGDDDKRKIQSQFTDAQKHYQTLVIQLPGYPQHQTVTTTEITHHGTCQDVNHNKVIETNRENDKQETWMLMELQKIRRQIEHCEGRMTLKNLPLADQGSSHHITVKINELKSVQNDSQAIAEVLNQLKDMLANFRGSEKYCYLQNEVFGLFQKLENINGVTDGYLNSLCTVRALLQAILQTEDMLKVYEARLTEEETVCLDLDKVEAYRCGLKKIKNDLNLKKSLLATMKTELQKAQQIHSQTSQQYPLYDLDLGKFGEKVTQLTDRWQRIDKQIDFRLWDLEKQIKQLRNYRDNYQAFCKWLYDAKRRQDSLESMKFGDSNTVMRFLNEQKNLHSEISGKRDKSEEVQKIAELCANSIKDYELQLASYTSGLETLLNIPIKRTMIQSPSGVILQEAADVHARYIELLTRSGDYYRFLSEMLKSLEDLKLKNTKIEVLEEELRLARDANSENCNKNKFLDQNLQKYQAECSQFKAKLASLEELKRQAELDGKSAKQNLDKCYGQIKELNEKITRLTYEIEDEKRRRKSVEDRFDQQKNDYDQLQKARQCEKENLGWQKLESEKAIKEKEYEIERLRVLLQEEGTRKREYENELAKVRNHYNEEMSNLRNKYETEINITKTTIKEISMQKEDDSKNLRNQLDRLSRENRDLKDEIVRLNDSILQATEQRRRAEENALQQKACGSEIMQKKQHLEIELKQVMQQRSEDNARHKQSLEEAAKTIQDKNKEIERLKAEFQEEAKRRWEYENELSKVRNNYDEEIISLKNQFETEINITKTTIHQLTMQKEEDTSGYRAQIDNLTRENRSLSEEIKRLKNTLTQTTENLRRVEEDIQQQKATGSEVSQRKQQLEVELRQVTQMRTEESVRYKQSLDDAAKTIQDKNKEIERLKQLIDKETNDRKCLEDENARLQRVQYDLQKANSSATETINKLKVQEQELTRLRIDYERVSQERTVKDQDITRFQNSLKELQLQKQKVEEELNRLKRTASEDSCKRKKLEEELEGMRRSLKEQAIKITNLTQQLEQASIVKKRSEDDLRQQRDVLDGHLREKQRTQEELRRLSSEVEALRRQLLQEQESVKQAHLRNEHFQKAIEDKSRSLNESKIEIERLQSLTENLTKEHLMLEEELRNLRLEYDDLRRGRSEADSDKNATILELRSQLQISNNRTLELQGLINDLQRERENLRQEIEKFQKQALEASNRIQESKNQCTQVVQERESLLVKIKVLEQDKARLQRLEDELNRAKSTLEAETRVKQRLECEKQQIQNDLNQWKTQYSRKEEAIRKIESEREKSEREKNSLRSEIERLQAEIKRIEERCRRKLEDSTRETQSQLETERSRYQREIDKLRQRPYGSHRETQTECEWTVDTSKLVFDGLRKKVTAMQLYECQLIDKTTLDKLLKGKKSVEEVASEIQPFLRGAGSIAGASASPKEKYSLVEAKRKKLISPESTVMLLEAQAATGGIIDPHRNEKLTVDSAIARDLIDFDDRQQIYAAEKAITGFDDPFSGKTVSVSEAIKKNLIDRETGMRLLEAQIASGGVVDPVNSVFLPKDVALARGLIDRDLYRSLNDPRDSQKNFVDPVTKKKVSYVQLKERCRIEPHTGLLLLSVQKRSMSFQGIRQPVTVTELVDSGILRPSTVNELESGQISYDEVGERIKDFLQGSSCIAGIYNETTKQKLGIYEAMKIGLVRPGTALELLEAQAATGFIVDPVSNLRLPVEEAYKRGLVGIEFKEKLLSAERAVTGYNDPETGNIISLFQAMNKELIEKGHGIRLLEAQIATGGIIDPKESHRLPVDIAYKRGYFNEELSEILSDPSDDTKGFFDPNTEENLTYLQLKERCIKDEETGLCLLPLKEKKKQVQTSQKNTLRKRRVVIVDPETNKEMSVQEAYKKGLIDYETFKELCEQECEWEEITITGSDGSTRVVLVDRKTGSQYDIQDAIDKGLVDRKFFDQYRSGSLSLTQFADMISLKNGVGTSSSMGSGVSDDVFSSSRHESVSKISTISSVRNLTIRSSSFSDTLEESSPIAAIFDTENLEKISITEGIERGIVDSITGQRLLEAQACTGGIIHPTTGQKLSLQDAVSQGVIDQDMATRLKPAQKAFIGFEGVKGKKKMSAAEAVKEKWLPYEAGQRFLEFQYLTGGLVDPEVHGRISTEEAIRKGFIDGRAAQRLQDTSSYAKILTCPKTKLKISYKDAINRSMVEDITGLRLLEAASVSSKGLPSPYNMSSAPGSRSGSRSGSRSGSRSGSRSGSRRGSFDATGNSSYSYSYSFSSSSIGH

log2 ratio of iodoacetamide-alkyne labeling, inactive:
U2AF1L5 C154 (UniProt P0DN76) -0.14
MTHFD2 C166 (UniProt P13995) 0.000124
ACAA1 C87 (UniProt P09110) 0.289
SNRPC C9 (UniProt P09234) 0.101
CAPN2 C341 (UniProt P17655) -0.0456
RPS17 C35 (UniProt P08708) 0.0883
G6PD C294 (UniProt P11413) -0.085
RNH1 C75 (UniProt P13489) 0.155
PDHB C306 (UniProt P11177) -0.0516
PARP1 C128 (UniProt P09874) 0.314
UniProt P0DMV8_C603 0.0376
RNH1 C12 (UniProt P13489) -0.0835
ACTN1 C370 (UniProt P12814) 0.333
LYN C468 (UniProt P07948) -0.0479
ACAA1 C218 (UniProt P09110) 0.0191
U2AF1L5 C102 (UniProt P0DN76) -0.0977
Q95604 C188 (UniProt P10321) 0.00524
GTF2F2 C116 (UniProt P13984) 0.29
HNRNPL C521 (UniProt P14866) 0.00341
EEF2 C651 (UniProt P13639) 0.169
MTHFD1 C691 (UniProt P11586) 0.0933
FH C434 (UniProt P07954) 0.194
PTPN2 C330 (UniProt P17706) 0.403
UniProt P14618_C423 0.0924
UniProt P08134_C107 -0.128
ETFA C109 (UniProt P13804) 0.182
DDX5 C191 (UniProt P17844) -0.0155
PLS3 C104 (UniProt P13797) 0.588
ARAF C192 (UniProt P10398) -0.101
HNRNPA1 C175 (UniProt P09651) 0.0363
EPB41 C224 (UniProt P11171) -0.0805
DSP C1052 (UniProt P15924) 0.0999
HSP90AB1 C589 (UniProt P08238) 0.134
JUP C90 (UniProt P14923) -0.0324
IMPDH2 C95 (UniProt P12268) -0.236
EEF2 C557 (UniProt P13639) -0.347
UniProt P10155_C38 0.357

Three records picked at random from the list so far:
log2 ratio of iodoacetamide-alkyne labeling, inactive:
UniProt P10155_C38 0.357
HNRNPA1 C175 (UniProt P09651) 0.0363
GTF2F2 C116 (UniProt P13984) 0.29

— the supplement of paper PMC11006884
